According to the supplement of paper PMC8426693:
The other results are listed elsewhere or left out. Single values are uncertain, as repeats are few or missing.

Columns and labels:
Settings in all cases: RNA concentration 10 µM; fragment concentration 200 µM; 293 K
[1] = test system: SARS-CoV-2 3'-UTR RNA; assay: T2 signal reduction relative to ligand without RNA (fraction); higher = stronger binding
[2] = test system: SARS-CoV-2 3_SL3base RNA; assay: as above
[3] = test system: SARS-CoV-2 5'-UTR RNA; assay: as above
[4] = test system: SARS-CoV-2 5_SL5stem RNA; assay: waterLOGSY factor (bound vs free ligand) (ratio); higher = stronger binding
[5] = test system: SARS-CoV-2 3_s2m RNA; assay: T2 signal reduction relative to ligand without RNA (fraction); higher = stronger binding
[6] = test system: SARS-CoV-2 5_SL1234 RNA; assay: as above
[7] = test system: SARS-CoV-2 5_SL4 RNA; assay: as above
[8] = test system: SARS-CoV-2 5_SL5 RNA; assay: as above
[9] = test system: SARS-CoV-2 5_SL5stem RNA; assay: as above
[10] = test system: SARS-CoV-2 5_SL8 RNA; assay: waterLOGSY factor (bound vs free ligand) (ratio); higher = stronger binding
[11] = test system: SARS-CoV-2 frameshift pseudoknot (PK) RNA; assay: as above
[12] = test system: SARS-CoV-2 3_SL1+2 RNA; assay: T2 signal reduction relative to ligand without RNA (fraction); higher = stronger binding
[13] = test system: SARS-CoV-2 5_SL1 RNA; assay: as above
[14] = test system: SARS-CoV-2 5_SL6 RNA; assay: waterLOGSY factor (bound vs free ligand) (ratio); higher = stronger binding
[15] = test system: SARS-CoV-2 5_SL7 RNA; assay: as above
[16] = test system: SARS-CoV-2 attenuator hairpin (att HP) RNA; assay: as above
[17] = test system: SARS-CoV-2 3_SL1 RNA; assay: T2 signal reduction relative to ligand without RNA (fraction); higher = stronger binding
[18] = test system: SARS-CoV-2 3_SL2 RNA; assay: as above
[19] = test system: SARS-CoV-2 5_SL5b+c RNA; assay: as above
[20] = test system: SARS-CoV-2 5_SL6 RNA; assay: as above

CC(C)NC(=O)c1ccc2ccccc2n1
T2 signal reduction [1]: 0.21

O=C(Nc1ccc2[nH]c(=O)[nH]c2c1)c1ccco1
T2 signal reduction [1]: 0.43 | T2 signal reduction [2]: 0.43 | T2 signal reduction [3]: 0.62

Oc1ccc(CN2CCCC2)c2cccnc12
T2 signal reduction [1]: 0.34 | T2 signal reduction [2]: 0.64 | T2 signal reduction [3]: 1.04

Cc1cccc(NC(=O)Nc2nc(C)cs2)c1
waterLOGSY factor [4]: 2.13 | T2 signal reduction [1]: 0.69 | T2 signal reduction [2]: 0.76 | T2 signal reduction [5]: 0.76 | T2 signal reduction [6]: 0.91 | T2 signal reduction [7]: 0.87 | T2 signal reduction [8]: 0.88 | T2 signal reduction [9]: 0.8

O=C(Nc1ccc2ncccc2c1)c1ccccc1
waterLOGSY factor [10]: 0.742 | T2 signal reduction [1]: 0.51 | T2 signal reduction [2]: 0.57 | T2 signal reduction [3]: 0.59 | T2 signal reduction [8]: 0.26

CNCC(=O)Nc1cc(C)ccn1
T2 signal reduction [1]: 0.33 | T2 signal reduction [2]: 0.59 | T2 signal reduction [3]: 1.08

Cc1occc1C(=O)Nc1ccncc1
waterLOGSY factor [4]: 0.92 | waterLOGSY factor [10]: 0.293 | waterLOGSY factor [11]: 1.95 | T2 signal reduction [1]: 0.4 | T2 signal reduction [12]: 0.48 | T2 signal reduction [2]: 0.63 | T2 signal reduction [3]: 0.86 | T2 signal reduction [13]: 0.24 | T2 signal reduction [8]: 0.8 | T2 signal reduction [9]: 0.86

O=C(Nc1ccc(O)cc1)c1ccc(Cl)cc1
T2 signal reduction [1]: 0.44 | T2 signal reduction [2]: 0.49 | T2 signal reduction [3]: 0.38

COc1ccc(NC(=O)Nc2cccs2)cn1
T2 signal reduction [1]: 0.33

OCc1cn(-c2ccc(Cl)c(Cl)c2)nn1
waterLOGSY factor [14]: 4.33 | waterLOGSY factor [15]: 7.23 | waterLOGSY factor [10]: 3.21 | waterLOGSY factor [16]: 1.69 | waterLOGSY factor [11]: 2.54 | T2 signal reduction [1]: 0.67 | T2 signal reduction [17]: 0.34 | T2 signal reduction [12]: 0.63 | T2 signal reduction [18]: 0.64 | T2 signal reduction [2]: 0.48 | T2 signal reduction [5]: 0.45 | T2 signal reduction [3]: 0.92 | T2 signal reduction [13]: 0.14 | T2 signal reduction [6]: 0.35 | T2 signal reduction [7]: 0.51 | T2 signal reduction [8]: 0.74 | T2 signal reduction [19]: 0.43 | T2 signal reduction [9]: 0.59 | T2 signal reduction [20]: 0.17

Cc1ccc(Nc2ncnc3[nH]ncc23)cc1
T2 signal reduction [1]: 0.58

N#Cc1ccc(NC(=O)c2cccs2)cc1
T2 signal reduction [1]: 0.75 | T2 signal reduction [2]: 0.63 | T2 signal reduction [3]: 0.82 | T2 signal reduction [8]: 0.75

O=C(Nc1ccon1)c1cccc(Cl)c1
waterLOGSY factor [4]: 1.22 | T2 signal reduction [1]: 0.51 | T2 signal reduction [2]: 0.32 | T2 signal reduction [3]: 0.73 | T2 signal reduction [8]: 0.55 | T2 signal reduction [9]: 0.56
